Results reported in paper PMC1976419.
These are yes or no findings as the source states them, for the method shown. Binding seen in cells or lysates may run through a third protein. Some results given as binding are weak or reduced against the parent protein; the word gives no strength. For part of these data: Where a sequence is shown, tags or fusion partners need not be part of it.

By UniProt entry, the sequences of proteins in these tests, tags left out.
UniProt Q03330: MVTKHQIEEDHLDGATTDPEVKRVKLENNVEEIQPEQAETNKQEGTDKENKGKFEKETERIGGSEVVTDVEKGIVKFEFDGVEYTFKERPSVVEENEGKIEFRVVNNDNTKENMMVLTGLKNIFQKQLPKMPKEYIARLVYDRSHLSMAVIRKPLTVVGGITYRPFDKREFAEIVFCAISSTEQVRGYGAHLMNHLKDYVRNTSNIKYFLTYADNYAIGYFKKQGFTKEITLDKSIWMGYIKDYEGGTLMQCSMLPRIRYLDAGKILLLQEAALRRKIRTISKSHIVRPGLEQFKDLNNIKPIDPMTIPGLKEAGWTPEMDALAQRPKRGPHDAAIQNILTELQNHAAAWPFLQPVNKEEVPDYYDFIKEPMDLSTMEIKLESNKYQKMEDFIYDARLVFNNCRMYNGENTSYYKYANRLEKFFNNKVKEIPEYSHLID
UniProt P35177: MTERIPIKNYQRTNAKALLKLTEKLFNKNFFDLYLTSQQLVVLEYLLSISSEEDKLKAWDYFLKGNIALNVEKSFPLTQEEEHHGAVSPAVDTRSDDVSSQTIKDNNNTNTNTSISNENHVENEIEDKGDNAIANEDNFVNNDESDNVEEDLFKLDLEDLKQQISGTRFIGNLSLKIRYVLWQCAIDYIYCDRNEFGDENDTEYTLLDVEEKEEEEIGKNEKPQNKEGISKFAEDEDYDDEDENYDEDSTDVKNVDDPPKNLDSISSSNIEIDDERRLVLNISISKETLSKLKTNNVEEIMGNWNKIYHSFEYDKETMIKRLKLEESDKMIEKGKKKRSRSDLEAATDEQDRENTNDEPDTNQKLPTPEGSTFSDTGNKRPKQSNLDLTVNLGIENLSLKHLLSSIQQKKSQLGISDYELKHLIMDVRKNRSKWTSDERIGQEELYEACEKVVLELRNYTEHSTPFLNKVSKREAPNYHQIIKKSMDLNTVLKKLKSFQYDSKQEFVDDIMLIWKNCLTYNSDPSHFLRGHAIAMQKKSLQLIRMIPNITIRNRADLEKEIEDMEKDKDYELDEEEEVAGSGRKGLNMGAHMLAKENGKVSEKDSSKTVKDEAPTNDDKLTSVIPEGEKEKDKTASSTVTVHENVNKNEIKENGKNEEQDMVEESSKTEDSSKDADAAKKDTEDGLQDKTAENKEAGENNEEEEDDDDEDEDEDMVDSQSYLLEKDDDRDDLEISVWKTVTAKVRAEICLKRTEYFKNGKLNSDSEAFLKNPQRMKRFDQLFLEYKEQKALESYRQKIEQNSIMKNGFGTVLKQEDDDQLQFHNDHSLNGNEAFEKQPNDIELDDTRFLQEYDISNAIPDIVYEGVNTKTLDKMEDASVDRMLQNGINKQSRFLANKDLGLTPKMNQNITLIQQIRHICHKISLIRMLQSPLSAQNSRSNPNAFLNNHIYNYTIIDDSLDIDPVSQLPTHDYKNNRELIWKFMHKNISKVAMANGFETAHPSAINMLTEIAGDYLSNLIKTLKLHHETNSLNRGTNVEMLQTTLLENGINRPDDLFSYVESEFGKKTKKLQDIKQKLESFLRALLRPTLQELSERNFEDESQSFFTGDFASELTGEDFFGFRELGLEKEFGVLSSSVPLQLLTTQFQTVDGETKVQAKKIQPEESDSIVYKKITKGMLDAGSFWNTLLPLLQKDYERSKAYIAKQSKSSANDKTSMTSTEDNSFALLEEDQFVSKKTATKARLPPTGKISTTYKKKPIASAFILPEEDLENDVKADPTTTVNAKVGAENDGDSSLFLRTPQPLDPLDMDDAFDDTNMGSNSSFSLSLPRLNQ

Experiments:
Assay in all cases: co-IP; 25 mg crude lysate of yeast strains with a C-terminally TAP-tagged SAGA component and Flag-Spt7, purified on IgG agarose; bound protein separated by 5% SDS-PAGE, Flag-Spt7 forms detected with anti-Flag antibody
[1] = target: T1, C-terminally TAP-tagged Ada2 (S. cerevisiae) (UniProt Q02336)
T1 sequence: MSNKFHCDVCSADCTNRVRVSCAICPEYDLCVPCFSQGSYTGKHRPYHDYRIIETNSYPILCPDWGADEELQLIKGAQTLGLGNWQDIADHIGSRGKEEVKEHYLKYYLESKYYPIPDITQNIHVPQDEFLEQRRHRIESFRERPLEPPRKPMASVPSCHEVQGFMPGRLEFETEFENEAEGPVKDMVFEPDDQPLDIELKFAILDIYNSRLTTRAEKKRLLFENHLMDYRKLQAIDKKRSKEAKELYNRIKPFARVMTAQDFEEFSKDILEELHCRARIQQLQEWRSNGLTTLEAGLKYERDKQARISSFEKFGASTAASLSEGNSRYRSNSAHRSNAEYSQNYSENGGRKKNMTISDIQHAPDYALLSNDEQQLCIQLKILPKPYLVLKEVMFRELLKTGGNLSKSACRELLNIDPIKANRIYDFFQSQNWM

[2] = target: C-terminally TAP-tagged Gcn5 (S. cerevisiae) (UniProt Q03330)
[3] = target: T2, C-terminally TAP-tagged Spt3 (S. cerevisiae) (UniProt P06844)
T2 sequence: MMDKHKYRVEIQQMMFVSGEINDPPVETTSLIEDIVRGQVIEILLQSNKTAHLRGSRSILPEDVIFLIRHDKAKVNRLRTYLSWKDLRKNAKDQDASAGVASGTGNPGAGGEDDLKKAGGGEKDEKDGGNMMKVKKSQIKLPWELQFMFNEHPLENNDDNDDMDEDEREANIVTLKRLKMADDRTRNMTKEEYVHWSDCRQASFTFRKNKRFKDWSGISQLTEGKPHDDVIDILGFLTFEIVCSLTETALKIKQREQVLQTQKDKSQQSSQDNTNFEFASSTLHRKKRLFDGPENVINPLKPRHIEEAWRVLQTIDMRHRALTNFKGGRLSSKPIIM

[4] = target: T3, C-terminally TAP-tagged Spt8 (S. cerevisiae) (UniProt P38915)
T3 sequence: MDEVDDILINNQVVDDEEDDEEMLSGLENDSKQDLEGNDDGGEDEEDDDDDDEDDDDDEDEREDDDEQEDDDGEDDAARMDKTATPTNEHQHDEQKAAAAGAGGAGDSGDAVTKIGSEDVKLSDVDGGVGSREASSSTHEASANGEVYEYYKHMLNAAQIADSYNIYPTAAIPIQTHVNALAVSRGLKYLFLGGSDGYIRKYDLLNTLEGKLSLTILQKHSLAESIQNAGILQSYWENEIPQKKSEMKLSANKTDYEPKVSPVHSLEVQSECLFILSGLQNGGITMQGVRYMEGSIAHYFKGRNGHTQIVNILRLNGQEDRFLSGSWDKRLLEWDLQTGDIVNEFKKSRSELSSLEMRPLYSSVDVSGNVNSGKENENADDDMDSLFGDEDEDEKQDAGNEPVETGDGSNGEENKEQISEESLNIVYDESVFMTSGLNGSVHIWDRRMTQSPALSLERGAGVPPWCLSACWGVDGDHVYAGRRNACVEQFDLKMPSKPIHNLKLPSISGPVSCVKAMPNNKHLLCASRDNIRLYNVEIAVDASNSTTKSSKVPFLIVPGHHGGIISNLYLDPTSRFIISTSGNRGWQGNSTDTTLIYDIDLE

[5] = target: T4, C-terminally TAP-tagged Taf5 (S. cerevisiae) (UniProt P38129)
T4 sequence: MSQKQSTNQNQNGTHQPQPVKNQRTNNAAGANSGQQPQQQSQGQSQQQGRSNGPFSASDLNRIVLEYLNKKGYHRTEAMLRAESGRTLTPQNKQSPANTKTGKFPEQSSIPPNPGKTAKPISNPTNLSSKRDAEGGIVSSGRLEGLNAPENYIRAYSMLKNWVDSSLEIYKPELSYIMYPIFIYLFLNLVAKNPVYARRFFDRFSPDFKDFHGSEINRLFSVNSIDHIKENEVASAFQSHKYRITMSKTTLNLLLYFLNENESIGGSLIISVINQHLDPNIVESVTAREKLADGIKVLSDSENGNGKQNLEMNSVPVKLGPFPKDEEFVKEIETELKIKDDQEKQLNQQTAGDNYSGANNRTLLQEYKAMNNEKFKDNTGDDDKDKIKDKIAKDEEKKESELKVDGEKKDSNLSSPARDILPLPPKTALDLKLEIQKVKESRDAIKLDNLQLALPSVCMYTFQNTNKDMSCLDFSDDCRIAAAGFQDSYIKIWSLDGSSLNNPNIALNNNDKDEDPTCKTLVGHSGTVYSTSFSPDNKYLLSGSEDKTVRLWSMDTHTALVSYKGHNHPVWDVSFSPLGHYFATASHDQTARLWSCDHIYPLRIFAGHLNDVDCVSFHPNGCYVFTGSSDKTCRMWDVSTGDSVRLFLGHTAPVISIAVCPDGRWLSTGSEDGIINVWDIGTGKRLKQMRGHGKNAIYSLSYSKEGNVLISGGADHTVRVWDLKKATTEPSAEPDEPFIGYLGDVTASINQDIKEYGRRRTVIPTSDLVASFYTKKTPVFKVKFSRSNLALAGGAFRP

[6] = target: T5, C-terminally TAP-tagged Ubp8 (S. cerevisiae) (UniProt P50102)
T5 sequence: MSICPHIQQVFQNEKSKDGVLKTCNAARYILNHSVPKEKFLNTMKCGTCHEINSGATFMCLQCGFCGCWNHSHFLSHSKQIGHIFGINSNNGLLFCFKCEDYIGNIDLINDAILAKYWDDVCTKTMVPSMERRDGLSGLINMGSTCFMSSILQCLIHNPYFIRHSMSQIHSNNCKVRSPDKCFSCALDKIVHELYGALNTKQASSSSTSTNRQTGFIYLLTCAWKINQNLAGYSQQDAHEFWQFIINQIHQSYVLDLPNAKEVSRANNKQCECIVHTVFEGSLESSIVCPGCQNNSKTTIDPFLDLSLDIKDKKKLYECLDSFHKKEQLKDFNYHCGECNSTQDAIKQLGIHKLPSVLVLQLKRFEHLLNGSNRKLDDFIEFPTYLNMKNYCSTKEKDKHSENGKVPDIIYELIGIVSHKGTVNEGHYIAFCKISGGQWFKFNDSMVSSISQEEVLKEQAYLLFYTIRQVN

Measured: binding

Flag-Spt7, full-length SAGA form (Spt7SAGA) (from UniProt P35177 1-1332)
binds: all assays above
